In publication PMC6890466:
Results are given in words; binding and its absence hold for the method and conditions named. Binding seen in cells or lysates may run through a third protein. Some binding calls cover weakened binding; strength is not graded here. Tags and fused reporters may be left off the sequences shown.

T1: TIMELESS short and cold isoform TIM-SC, HA-tagged (pAcTimSC-HA) (D. melanogaster) (UniProt P49021)
T1 sequence: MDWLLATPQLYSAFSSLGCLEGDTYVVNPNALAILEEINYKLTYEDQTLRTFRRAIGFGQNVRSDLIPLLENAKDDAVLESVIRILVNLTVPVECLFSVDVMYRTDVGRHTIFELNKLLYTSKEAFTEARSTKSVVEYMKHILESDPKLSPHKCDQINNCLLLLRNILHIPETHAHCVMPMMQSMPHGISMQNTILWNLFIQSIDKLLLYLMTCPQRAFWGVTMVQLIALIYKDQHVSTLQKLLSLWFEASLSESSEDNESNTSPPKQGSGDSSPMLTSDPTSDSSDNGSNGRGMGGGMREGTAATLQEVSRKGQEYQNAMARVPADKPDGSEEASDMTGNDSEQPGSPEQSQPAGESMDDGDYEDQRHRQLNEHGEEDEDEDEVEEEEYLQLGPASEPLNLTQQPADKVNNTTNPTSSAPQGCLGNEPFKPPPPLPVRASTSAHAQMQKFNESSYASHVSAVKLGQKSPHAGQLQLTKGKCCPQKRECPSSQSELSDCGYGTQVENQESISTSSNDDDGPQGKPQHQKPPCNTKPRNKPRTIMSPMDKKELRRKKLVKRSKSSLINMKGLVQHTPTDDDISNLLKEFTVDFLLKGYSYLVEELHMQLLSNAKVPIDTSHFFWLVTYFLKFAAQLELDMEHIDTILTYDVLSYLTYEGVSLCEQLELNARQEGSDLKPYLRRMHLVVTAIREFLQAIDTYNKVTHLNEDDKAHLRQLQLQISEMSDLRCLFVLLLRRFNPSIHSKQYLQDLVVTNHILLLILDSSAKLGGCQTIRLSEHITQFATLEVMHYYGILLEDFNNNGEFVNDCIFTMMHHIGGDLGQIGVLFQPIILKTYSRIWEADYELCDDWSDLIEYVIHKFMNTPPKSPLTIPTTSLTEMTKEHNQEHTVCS

T2: TIMELESS canonical isoform TIM-L, HA-tagged (pAcTimL-HA) (D. melanogaster) (UniProt P49021)
T2 sequence: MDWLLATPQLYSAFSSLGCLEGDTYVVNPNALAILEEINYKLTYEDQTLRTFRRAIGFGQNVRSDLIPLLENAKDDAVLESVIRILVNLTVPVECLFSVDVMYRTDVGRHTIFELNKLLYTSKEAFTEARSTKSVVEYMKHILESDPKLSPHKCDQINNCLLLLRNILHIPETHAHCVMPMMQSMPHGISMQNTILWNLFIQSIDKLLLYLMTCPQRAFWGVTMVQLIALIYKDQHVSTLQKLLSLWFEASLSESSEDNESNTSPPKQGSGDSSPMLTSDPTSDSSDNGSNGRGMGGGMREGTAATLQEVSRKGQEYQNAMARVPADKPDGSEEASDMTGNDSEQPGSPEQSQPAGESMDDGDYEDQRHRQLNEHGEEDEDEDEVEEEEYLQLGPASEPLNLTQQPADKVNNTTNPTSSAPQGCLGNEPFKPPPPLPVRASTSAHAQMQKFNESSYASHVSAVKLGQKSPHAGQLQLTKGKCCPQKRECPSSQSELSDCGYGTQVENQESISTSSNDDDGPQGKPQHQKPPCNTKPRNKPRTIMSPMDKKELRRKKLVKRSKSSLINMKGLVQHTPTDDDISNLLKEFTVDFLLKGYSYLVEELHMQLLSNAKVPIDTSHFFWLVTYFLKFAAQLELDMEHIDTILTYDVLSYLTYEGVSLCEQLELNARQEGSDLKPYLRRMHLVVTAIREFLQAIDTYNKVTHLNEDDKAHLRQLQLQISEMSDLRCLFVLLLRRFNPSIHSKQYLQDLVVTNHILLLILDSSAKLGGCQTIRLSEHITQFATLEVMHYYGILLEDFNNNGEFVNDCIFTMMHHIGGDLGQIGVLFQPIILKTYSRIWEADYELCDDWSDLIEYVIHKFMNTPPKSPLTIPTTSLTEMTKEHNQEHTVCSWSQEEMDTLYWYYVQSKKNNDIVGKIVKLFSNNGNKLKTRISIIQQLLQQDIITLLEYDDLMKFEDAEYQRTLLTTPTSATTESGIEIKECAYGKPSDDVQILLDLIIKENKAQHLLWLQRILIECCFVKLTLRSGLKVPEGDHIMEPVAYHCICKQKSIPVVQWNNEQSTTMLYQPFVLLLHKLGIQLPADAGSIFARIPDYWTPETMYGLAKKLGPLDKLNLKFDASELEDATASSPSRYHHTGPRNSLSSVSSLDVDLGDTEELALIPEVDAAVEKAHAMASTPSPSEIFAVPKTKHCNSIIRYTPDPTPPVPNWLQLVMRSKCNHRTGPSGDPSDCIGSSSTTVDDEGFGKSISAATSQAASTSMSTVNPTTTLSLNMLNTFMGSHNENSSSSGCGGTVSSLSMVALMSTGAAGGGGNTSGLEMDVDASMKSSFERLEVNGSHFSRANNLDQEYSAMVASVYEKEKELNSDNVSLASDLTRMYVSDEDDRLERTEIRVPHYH


Assays:
[1] = target: T1, TIMELESS short and cold isoform TIM-SC, HA-tagged (pAcTimSC-HA) (D. melanogaster); test: co-IP; S2 cells co-transfected with pAcPerV5 and pAcTimL-HA or pAcTimSC-HA; lysis buffer 1% NP40, 20 mM Tris pH 7.4, 150 mM NaCl, 10% glycerol; immunoprecipitation with anti-HA and Protein G magnetic beads, 4°C; western blot for PER, GFP and TIM; IgG and no-TIM controls
[2] = target: T2, TIMELESS canonical isoform TIM-L, HA-tagged (pAcTimL-HA) (D. melanogaster); test: as above
[3] = target: PERIOD (PER), expressed from pAcPerV5 (D. melanogaster) (UniProt P07663); test: co-IP; S2 cells co-transfected with pAcPerV5 and pAcTimL-HA, pAcTimSC-HA or both; lysis buffer 1% NP40, 20 mM Tris pH 7.4, 150 mM NaCl, 10% glycerol; immunoprecipitation with anti-PER and Protein G magnetic beads, 4°C; western blot for PER, GFP and TIM; IgG and no-PER controls

Row | Molecule | binding [1] | binding [2] | binding [3]
1 | PERIOD (PER), expressed from pAcPerV5 (from UniProt P07663 1-1218) | binds | binds | –
2 | TIMELESS canonical isoform TIM-L, HA-tagged (pAcTimL-HA) (protein, UniProt P49021 1-1398) MDWLLATPQLYSAFSSLGCLEGDTYVVNPNALAILEEINYKLTYEDQTLRTFRRAIGFGQNVRSDLIPLLENAKDDAVLESVIRILVNLTVPVECLFSVDVMYRTDVGRHTIFELNKLLYTSKEAFTEARSTKSVVEYMKHILESDPKLSPHKCDQINNCLLLLRNILHIPETHAHCVMPMMQSMPHGISMQNTILWNLFIQSIDKLLLYLMTCPQRAFWGVTMVQLIALIYKDQHVSTLQKLLSLWFEASLSESSEDNESNTSPPKQGSGDSSPMLTSDPTSDSSDNGSNGRGMGGGMREGTAATLQEVSRKGQEYQNAMARVPADKPDGSEEASDMTGNDSEQPGSPEQSQPAGESMDDGDYEDQRHRQLNEHGEEDEDEDEVEEEEYLQLGPASEPLNLTQQPADKVNNTTNPTSSAPQGCLGNEPFKPPPPLPVRASTSAHAQMQKFNESSYASHVSAVKLGQKSPHAGQLQLTKGKCCPQKRECPSSQSELSDCGYGTQVENQESISTSSNDDDGPQGKPQHQKPPCNTKPRNKPRTIMSPMDKKELRRKKLVKRSKSSLINMKGLVQHTPTDDDISNLLKEFTVDFLLKGYSYLVEELHMQLLSNAKVPIDTSHFFWLVTYFLKFAAQLELDMEHIDTILTYDVLSYLTYEGVSLCEQLELNARQEGSDLKPYLRRMHLVVTAIREFLQAIDTYNKVTHLNEDDKAHLRQLQLQISEMSDLRCLFVLLLRRFNPSIHSKQYLQDLVVTNHILLLILDSSAKLGGCQTIRLSEHITQFATLEVMHYYGILLEDFNNNGEFVNDCIFTMMHHIGGDLGQIGVLFQPIILKTYSRIWEADYELCDDWSDLIEYVIHKFMNTPPKSPLTIPTTSLTEMTKEHNQEHTVCSWSQEEMDTLYWYYVQSKKNNDIVGKIVKLFSNNGNKLKTRISIIQQLLQQDIITLLEYDDLMKFEDAEYQRTLLTTPTSATTESGIEIKECAYGKPSDDVQILLDLIIKENKAQHLLWLQRILIECCFVKLTLRSGLKVPEGDHIMEPVAYHCICKQKSIPVVQWNNEQSTTMLYQPFVLLLHKLGIQLPADAGSIFARIPDYWTPETMYGLAKKLGPLDKLNLKFDASELEDATASSPSRYHHTGPRNSLSSVSSLDVDLGDTEELALIPEVDAAVEKAHAMASTPSPSEIFAVPKTKHCNSIIRYTPDPTPPVPNWLQLVMRSKCNHRTGPSGDPSDCIGSSSTTVDDEGFGKSISAATSQAASTSMSTVNPTTTLSLNMLNTFMGSHNENSSSSGCGGTVSSLSMVALMSTGAAGGGGNTSGLEMDVDASMKSSFERLEVNGSHFSRANNLDQEYSAMVASVYEKEKELNSDNVSLASDLTRMYVSDEDDRLERTEIRVPHYH | – | – | binds
3 | TIMELESS short and cold isoform TIM-SC, HA-tagged (pAcTimSC-HA) (protein, UniProt P49021 1-892) MDWLLATPQLYSAFSSLGCLEGDTYVVNPNALAILEEINYKLTYEDQTLRTFRRAIGFGQNVRSDLIPLLENAKDDAVLESVIRILVNLTVPVECLFSVDVMYRTDVGRHTIFELNKLLYTSKEAFTEARSTKSVVEYMKHILESDPKLSPHKCDQINNCLLLLRNILHIPETHAHCVMPMMQSMPHGISMQNTILWNLFIQSIDKLLLYLMTCPQRAFWGVTMVQLIALIYKDQHVSTLQKLLSLWFEASLSESSEDNESNTSPPKQGSGDSSPMLTSDPTSDSSDNGSNGRGMGGGMREGTAATLQEVSRKGQEYQNAMARVPADKPDGSEEASDMTGNDSEQPGSPEQSQPAGESMDDGDYEDQRHRQLNEHGEEDEDEDEVEEEEYLQLGPASEPLNLTQQPADKVNNTTNPTSSAPQGCLGNEPFKPPPPLPVRASTSAHAQMQKFNESSYASHVSAVKLGQKSPHAGQLQLTKGKCCPQKRECPSSQSELSDCGYGTQVENQESISTSSNDDDGPQGKPQHQKPPCNTKPRNKPRTIMSPMDKKELRRKKLVKRSKSSLINMKGLVQHTPTDDDISNLLKEFTVDFLLKGYSYLVEELHMQLLSNAKVPIDTSHFFWLVTYFLKFAAQLELDMEHIDTILTYDVLSYLTYEGVSLCEQLELNARQEGSDLKPYLRRMHLVVTAIREFLQAIDTYNKVTHLNEDDKAHLRQLQLQISEMSDLRCLFVLLLRRFNPSIHSKQYLQDLVVTNHILLLILDSSAKLGGCQTIRLSEHITQFATLEVMHYYGILLEDFNNNGEFVNDCIFTMMHHIGGDLGQIGVLFQPIILKTYSRIWEADYELCDDWSDLIEYVIHKFMNTPPKSPLTIPTTSLTEMTKEHNQEHTVCS | – | – | binds
